The values below come from patent US20070116702A1, “Survival promoting NCAM binding and MCAM ligand binding compounds” (priority 2001, published 2007).

The chains behind the UniProt entries cited, without tags or fusion partners. Where a name states a change or a piece, a line headed by the entry shows the natural chain unless it says otherwise. Residues count along the entry.
UniProt P13596, residues 20-208: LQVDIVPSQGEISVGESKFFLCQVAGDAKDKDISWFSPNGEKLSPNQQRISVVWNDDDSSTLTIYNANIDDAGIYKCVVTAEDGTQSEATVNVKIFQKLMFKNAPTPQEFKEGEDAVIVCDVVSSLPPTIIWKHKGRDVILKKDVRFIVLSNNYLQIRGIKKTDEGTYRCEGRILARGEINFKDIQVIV

Results are given in words; binding and its absence hold for the method and conditions named. Some binding calls cover weakened binding; strength is not graded here.

In this experiment the target is NCAM(20-208), unmutated double domain Ig1-Ig2 (UniProt P13596). The experiment is described as follows: gel filtration chromatography, homophilic dimer. A general note: SEC sorts molecules by how far they enter the pores of the column.

Turning to “NCAM(20-208), unmutated double domain Ig1-Ig2 (from UniProt P13596 20-208) (receptor)”, the binding result is given as “binds”.
